The record followed here is publication doi:10.1101/2022.06.22.497213.

By UniProt entry, the sequences of proteins in these tests, tags left out. Residues count along the entry.
UniProt Q92905, 1-257: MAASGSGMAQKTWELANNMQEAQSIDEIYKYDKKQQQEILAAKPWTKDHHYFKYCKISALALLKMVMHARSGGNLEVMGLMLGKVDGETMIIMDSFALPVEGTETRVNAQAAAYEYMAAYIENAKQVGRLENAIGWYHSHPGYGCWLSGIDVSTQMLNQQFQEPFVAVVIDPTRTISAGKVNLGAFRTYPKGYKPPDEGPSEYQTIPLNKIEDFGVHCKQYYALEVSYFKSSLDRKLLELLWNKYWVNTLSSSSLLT
UniProt Q14671, 828-1176: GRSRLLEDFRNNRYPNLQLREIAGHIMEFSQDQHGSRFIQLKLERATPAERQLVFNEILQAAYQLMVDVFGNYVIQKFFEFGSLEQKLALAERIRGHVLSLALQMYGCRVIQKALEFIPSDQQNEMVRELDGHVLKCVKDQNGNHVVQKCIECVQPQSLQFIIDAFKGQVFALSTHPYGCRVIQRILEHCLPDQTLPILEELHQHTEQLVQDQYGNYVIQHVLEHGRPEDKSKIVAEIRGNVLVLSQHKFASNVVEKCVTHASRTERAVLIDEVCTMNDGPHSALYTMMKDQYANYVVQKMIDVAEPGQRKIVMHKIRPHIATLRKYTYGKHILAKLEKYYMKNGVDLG

This experiment addresses GST::CSN5^MPN (human) (UniProt Q92905). Description: pull-down.

These are yes or no findings as the source states them, for the method shown. Binding seen in cells or lysates may run through a third protein. Some binding calls cover weakened binding; strength is not graded here.

Consider “His6::PUM1^RBD (from UniProt Q14671 828-1176) (domain or fragment)”, for which the binding entry is given as “binds”.
